Measured values taken from PMC11649786.
These are yes or no findings as the source states them, for the method shown. In cells and extracts the contact can be indirect. Some binding calls cover weakened binding; strength is not graded here.

By UniProt entry, the sequences of proteins in these tests, tags left out.
UniProt P31274: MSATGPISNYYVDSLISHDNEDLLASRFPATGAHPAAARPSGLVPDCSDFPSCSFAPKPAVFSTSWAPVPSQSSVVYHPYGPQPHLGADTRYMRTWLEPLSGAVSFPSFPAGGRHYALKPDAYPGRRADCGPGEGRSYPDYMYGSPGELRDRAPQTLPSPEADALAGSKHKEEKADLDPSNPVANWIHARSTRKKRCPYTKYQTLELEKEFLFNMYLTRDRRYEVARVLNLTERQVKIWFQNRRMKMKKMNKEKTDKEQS
UniProt P04198: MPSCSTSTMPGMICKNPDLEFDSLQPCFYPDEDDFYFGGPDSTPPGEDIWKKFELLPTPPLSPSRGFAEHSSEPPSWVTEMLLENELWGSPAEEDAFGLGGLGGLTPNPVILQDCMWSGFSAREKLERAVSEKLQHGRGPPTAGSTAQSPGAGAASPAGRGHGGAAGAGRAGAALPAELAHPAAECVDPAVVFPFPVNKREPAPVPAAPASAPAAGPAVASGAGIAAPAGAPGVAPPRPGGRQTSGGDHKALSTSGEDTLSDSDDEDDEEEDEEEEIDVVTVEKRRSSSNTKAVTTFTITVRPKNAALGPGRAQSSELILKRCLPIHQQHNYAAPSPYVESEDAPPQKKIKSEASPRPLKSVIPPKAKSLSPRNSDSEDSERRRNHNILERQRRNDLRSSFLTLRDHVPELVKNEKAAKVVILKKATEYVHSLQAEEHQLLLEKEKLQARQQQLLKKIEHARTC
UniProt P31273: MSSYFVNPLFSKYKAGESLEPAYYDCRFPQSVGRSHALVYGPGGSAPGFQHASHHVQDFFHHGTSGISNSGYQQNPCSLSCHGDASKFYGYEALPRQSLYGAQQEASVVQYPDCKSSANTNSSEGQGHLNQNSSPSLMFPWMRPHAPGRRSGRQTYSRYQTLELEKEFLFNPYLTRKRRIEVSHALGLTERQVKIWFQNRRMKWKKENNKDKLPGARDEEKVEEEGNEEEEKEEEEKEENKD
UniProt Q86U44: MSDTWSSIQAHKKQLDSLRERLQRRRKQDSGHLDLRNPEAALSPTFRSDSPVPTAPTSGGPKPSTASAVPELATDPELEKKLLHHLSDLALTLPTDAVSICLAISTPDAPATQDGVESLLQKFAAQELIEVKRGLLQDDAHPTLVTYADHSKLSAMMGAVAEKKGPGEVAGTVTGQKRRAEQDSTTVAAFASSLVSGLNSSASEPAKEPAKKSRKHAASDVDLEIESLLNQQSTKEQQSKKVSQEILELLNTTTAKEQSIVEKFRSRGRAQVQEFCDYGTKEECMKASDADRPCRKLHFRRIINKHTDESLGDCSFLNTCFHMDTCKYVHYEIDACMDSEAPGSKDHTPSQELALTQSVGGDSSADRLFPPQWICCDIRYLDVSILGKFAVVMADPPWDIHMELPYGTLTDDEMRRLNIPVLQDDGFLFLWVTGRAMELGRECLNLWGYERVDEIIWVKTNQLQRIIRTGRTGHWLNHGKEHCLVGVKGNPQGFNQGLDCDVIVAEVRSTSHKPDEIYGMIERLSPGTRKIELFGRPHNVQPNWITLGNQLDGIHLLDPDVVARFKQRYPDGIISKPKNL

What was measured:
HOXC9 (human) = HOXC9 (human) (UniProt P31274); assay: proximity ligation; PLA in MNA NB cells, HOXC8 and HOXC9 antibodies (Appendix Fig. S5F)
[1] = target: MYCN in trunk neural crest cells (tNCC) (human (endogenous in tNCC from hESC H9)) (UniProt P04198); assay: proximity ligation; Duolink PLA in tNCC fixed in 4% PFA, METTL3 and MYCN antibodies; negative control with only the METTL3 antibody
[2] = target: FLAG-tagged MYCN (Flag-MYCN), Dox-induced in SHEP cells (SHEP^MYCN) (UniProt P04198); assay: proximity ligation; Duolink PLA in SHEP^MYCN cells after 24 h Dox induction, fixed in 4% PFA, METTL3 and MYCN antibodies; negative control with only the METTL3 antibody
[3] = target: FLAG-tagged MYCN (Flag-MYCN), Dox-induced in SHEP cells (SHEP^MYCN) (UniProt P04198); assay: co-IP; lysates of SHEP^MYCN cells after Dox induction for 24 h; IP with MYCN or METTL3 antibody, blotted with METTL3 or MYCN antibodies; IgG as negative control; also after 1 h treatment with 300 nM flavopiridol (interaction not altered)

Row | Substance | binding (HOXC9 (human)) | binding [1] | binding [2] | binding [3]
1 | HOXC8 (from UniProt P31273 1-242) | binds | – | – | –
2 | METTL3 (from UniProt Q86U44 1-580) (enzyme) | – | binds | binds | binds
